Measured data: PubChem BioAssay AID504786 (Drosophila RNAi Screening Center, 2011)

Screen: 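Knock-downs reducing HIF reporter induction by the iron chelator DFO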 (primary screen)
Cell system: Drosophila S2 cells with a stable HIF luciferase reporter
Knock-down reagent: long dsRNA against Drosophila genes, about 0.2 µg dsRNA per well of a 384-well plate
Timing: three days of knock-down, then 20 h of DFO before reading
Conditions: desferrioxamine (DFO) at 100 µM, an iron chelator that mimics hypoxia, for 20 h
Measured: 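Firefly luciferase driven by the mouse ldh-a hypoxia-response element, measured after 20 h of 100 µM DFO; z-scores per plate, higher means more signal lost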
Direction: z-score: higher = stronger loss of HIF reporter signal
The deposit covers about 21,000 reagents; this is an unselected part of those that have a named target and a result. 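Primary screen; positive scores mean lost reporter signal, so the sign may be inverted from the usual convention.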

| gene knocked down | amplicon | z-score, replicate 1 | z-score, replicate 2 | z-score, replicate 3 | z-score, replicate 4 |
| --- | --- | --- | --- | --- | --- |
| CG12355 (GeneID 2768954) | DRSC09381 | 0.2 | -0.1 | – | – |
| CG12355 (GeneID 2768954) | DRSC09883 | -0.2 | -0.1 | – | – |
| Axs (GeneID 32645) | DRSC19333 | -0.1 | -0.4 | – | – |
| CG3649 (GeneID 37626) | DRSC04400 | -0.3 | -0.3 | – | – |
| CG9689 (GeneID 31922) | DRSC18440 | -0.1 | 0 | – | – |
| sub (GeneID 44870) | DRSC06125 | -0.1 | 0.3 | – | – |
| trh (GeneID 38065) | DRSC08355 | -0.4 | -0.3 | – | – |
| trh (GeneID 38065) | DRSC08739 | -0.2 | -0.1 | – | – |
| Trm1 (GeneID 34656) | DRSC02951 | -0.3 | -0.7 | – | – |
| CG11444 (GeneID 31388) | DRSC17784 | -0.2 | 0.3 | – | – |
| ncd (GeneID 43517) | DRSC17012 | -0.3 | -0.2 | – | – |
| CCKLR-17D1 (GeneID 32860) | DRSC20010 | -0.3 | 0.4 | – | – |
| CCKLR-17D1 (GeneID 32860) | DRSC20011 | -0.1 | -0.6 | – | – |
| CCKLR-17D1 (GeneID 32860) | DRSC20012 | -0.6 | 0.3 | – | – |
| CG42327 (GeneID 41401) | DRSC14936 | 0.7 | 0.3 | – | – |
| CG42327 (GeneID 41401) | DRSC14937 | -0.3 | -0.1 | – | – |
| CG31205 (GeneID 318626) | DRSC13438 | -0.2 | -0.3 | – | – |
| Vha36-2 (GeneID 36328) | DRSC06294 | -0.5 | -0.3 | – | – |
| CG11600 (GeneID 41555) | DRSC14332 | -0.3 | -0.6 | – | – |
| Fkbp14 (GeneID 37449) | DRSC04615 | -0.3 | -0.5 | – | – |
| Vha100-3 (GeneID 246543) | DRSC05760 | 0.6 | -0.1 | – | – |
| CG32109 (GeneID 39444) | DRSC09816 | -0.2 | -0.1 | – | – |
| CG9674 (GeneID 39878) | DRSC11088 | -0.3 | -0.2 | – | – |
| CG9674 (GeneID 39878) | DRSC11089 | 0 | -0.1 | – | – |
| EbpIII (GeneID 49821) | DRSC04638 | -0.1 | -0.6 | – | – |
| CycC (GeneID 41801) | DRSC16619 | 0 | 0.4 | – | – |
| CG11626 (GeneID 42323) | DRSC14336 | -0.9 | -0.1 | – | – |
| Strica (GeneID 35528) | DRSC04920 | -0.4 | -0.4 | – | – |
| CG3594 (GeneID 37964) | DRSC04393 | -0.1 | 0.2 | – | – |
| mud (GeneID 44839) | DRSC19019 | -0.2 | -0.5 | -0.4 | -0.2 |
| sff (GeneID 39732) | DRSC10590 | -0.2 | -0.4 | – | – |
| KFase (GeneID 33907) | DRSC03258 | -0.2 | -0.6 | – | – |

4 entries from above, arranged by “z-score, replicate 1”, high to low.
| gene knocked down | amplicon | z-score, replicate 1 | z-score, replicate 2 | z-score, replicate 3 | z-score, replicate 4 |
| --- | --- | --- | --- | --- | --- |
| CG11444 (GeneID 31388) | DRSC17784 | -0.2 | 0.3 | – | – |
| Trm1 (GeneID 34656) | DRSC02951 | -0.3 | -0.7 | – | – |
| ncd (GeneID 43517) | DRSC17012 | -0.3 | -0.2 | – | – |
| CCKLR-17D1 (GeneID 32860) | DRSC20010 | -0.3 | 0.4 | – | – |

Additional results follow:
| gene knocked down | amplicon | z-score, replicate 1 | z-score, replicate 2 | z-score, replicate 3 | z-score, replicate 4 |
| --- | --- | --- | --- | --- | --- |
| Or85e (retired record) (GeneID 3772269) | DRSC16768 | -0.2 | -0.3 | – | – |
| CG31231 (GeneID 318638) | DRSC13308 | -0.4 | -0.3 | – | – |
| nrm (GeneID 40515) | DRSC11597 | -0.4 | -0.5 | – | – |
| nrm (GeneID 40515) | DRSC11599 | -0.4 | 0.1 | – | – |
| nrm (GeneID 40515) | DRSC11897 | -0.2 | -0.3 | – | – |
| eIF2D (GeneID 64874) | DRSC13916 | -0.1 | 0 | – | – |
| Tom20 (GeneID 40189) | DRSC10899 | -0.2 | -0.3 | – | – |
| Ir92a (GeneID 42415) | DRSC15111 | 0 | 0.3 | – | – |
| eIF3j (GeneID 36037) | DRSC06107 | 1.3 | 0.5 | – | – |
| RpL34a (GeneID 43169) | DRSC15964 | -0.5 | 0.3 | – | – |
| CG13247 (GeneID 40247) | DRSC11695 | -0.2 | -0.7 | – | – |
| CG14840 (GeneID 41734) | DRSC14964 | 0 | -0.2 | – | – |
| CG2061 (GeneID 32042) | DRSC19348 | -0.2 | -0.2 | – | – |
| Sodh1 (GeneID 40836) | DRSC12605 | -0.4 | -0.5 | – | – |
| Or47b (GeneID 36212) | DRSC07492 | -0.2 | 0.1 | – | – |
| CG16741 (GeneID 59232) | DRSC06622 | -0.6 | -0.4 | – | – |
| CG32606 (retired record) (GeneID 318111) | DRSC19001 | 6.4 | 1.9 | – | – |
| CG32606 (retired record) (GeneID 318111) | DRSC19371 | -0.3 | -0.9 | – | – |
| CG32606 (retired record) (GeneID 318111) | DRSC19372 | -0.3 | 1.2 | -1 | 0 |
| CG32606 (retired record) (GeneID 318111) | DRSC19373 | -0.4 | 0 | -0.2 | -0.3 |
| CG5805 (GeneID 42950) | DRSC15878 | -0.2 | -0.2 | – | – |
| CG4744 (GeneID 36485) | DRSC06887 | -0.3 | -0.4 | – | – |
| Ppt1 (GeneID 31805) | DRSC17806 | -0.3 | -0.2 | – | – |
| CG2701 (GeneID 31261) | DRSC18590 | -0.2 | -0.7 | – | – |
